Results: the supplement of paper PMC10338343
± gives the standard deviation. The list shows a part of the results, in another mix than the full data. Many entries were measured with a wide error. The list shows a part of the results.

Legend:
[1] = tested on: MILI (PIWIL2) piRISC loaded with L1MC piRNA (26 nt); test: pre-steady-state target cleavage rate (min^-1); higher = faster piRNA-guided slicing of the target; conditions: guide: L1MC piRNA 5'p-UAACUAAAUACUAUGCAAGCUGUAGG
Procedure, shortened: (§1)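 The pre-steady-state cleavage rate was obtained by Cleave-'n-Seq with a burst-and-steady-state fit. A transcribed, DNA-blocked target RNA library (0.1 nM) was mixed with 1 nM active affinity-purified piRISC carrying one synthetic guide, with or without 500 nM GTSF1 partner protein, in HEPES–potassium acetate buffer at 33 °C for 0–8 or 0–960 min. Uncleaved targets were sequenced and normalised to depth and to weakly complementary targets, with three trials pooled and k3 capped at 0.0001 min^-1.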

[2] = tested on: MIWI (PIWIL1) piRISC loaded with L1MC piRNA (30 nt); test: as above; conditions: guide: L1MC piRNA 5'p-UAACUAAAUACUAUGCAAGCUGUAGGUCCU
Procedure, shortened: as §1

[3] = tested on: EfPiwi piRISC loaded with L1MC piRNA (26 nt); test: pre-steady-state target cleavage rate (min^-1); guide: L1MC piRNA 5'p-UAACUAAAUACUAUGCAAGCUGUAGG; MIWI and MILI are mouse PIWI proteins and EfPiwi is from a freshwater sponge; tags in brackets are library labels; higher = faster piRNA-guided slicing of the target
Procedure, shortened: as §1

[4] = auxiliary factor: none (no GTSF1)
[5] = auxiliary factor: 500 nM Ephydatia muelleri Gtsf1
[6] = auxiliary factor: 500 nM mouse GTSF1
[7] = auxiliary factor: none (no Gtsf1)

Row | Sequence | pre-steady-state target cleavage rate [1, 4] | pre-steady-state target cleavage rate [2, 4] | pre-steady-state target cleavage rate [3, 5] | pre-steady-state target cleavage rate [1, 6] | pre-steady-state target cleavage rate [3, 7] | pre-steady-state target cleavage rate [2, 6]
1 | UCCUGGUACAGCUUCCAUACUAUUUAGUUA | 0.00102 ± 0.0086 | 0.000898 ± 0.0096 | 0.000618 ± 0.0085 |  |  | 
2 | UCCUGGAACACCUUGCAUAGUAUUUUCAAA | 0.000836 ± 0.007 | 0.00119 ± 0.0053 | 0.00179 ± 0.0036 |  |  | 
3 | UCCUGGAUCAGCUUCCAUACUAUUUAGUUA | 0.000334 ± 0.011 | 0.000463 ± 0.011 | 0.000424 ± 0.0058 |  |  | 
4 | UCCUGCUACAGCUACGAUAGUAUUUUCAAA | 0.000438 ± 0.0089 | 0.000431 ± 0.015 | 0.000223 ± 0.015 |  |  | 
5 | UCCUGGUACAGCUACGAUAGUAUUUACAAA | 0.000667 ± 0.0088 | 0.00031 ± 0.012 | 0.000918 ± 0.0082 |  |  | 
6 | UCCUGGAUGUCCUUGCAUACAAUUUAGUAA | 0.000778 ± 0.0067 | 0.000788 ± 0.0089 | 0.00108 ± 0.0057 |  |  | 
7 | UCCUGGAUCAGCUUGCAUAGUUAUUAGAAA | 0.000763 ± 0.0079 | 0.00131 ± 0.0049 | 0.00282 ± 0.0036 |  |  | 
8 | UCCUGGAUGUCCUUCCAUAGUAUUUAGUAA | 0.000645 ± 0.0077 | 0.000661 ± 0.0085 | 0.00142 ± 0.0054 |  |  | 
9 | UCCUGGAUGUCCUUGCAUAGUAAUUAGAUA | 0.000678 ± 0.0092 | 0.0013 ± 0.0059 | 0.00232 ± 0.0046 |  |  | 
10 | UCCUGGUACAGCAACCAUAGUAUUUAGUAA |  | 0.0016 ± 0.0048 | 0.00169 ± 0.0077 | 0.313 ± 0.064 |  | 
11 | UCCUGGAUCAGCUACGAUAGUAUUUAGAAA | 0.000356 ± 0.015 | 0.000421 ± 0.0064 | 0.000219 ± 0.016 |  |  | 
12 | UCCUGGAACAGCUUGGUAAGUAUUUAGAAA | 0.000792 ± 0.0071 | 0.000808 ± 0.0082 | 0.00029 ± 0.011 |  |  | 
13 | UCCUGGAUCAGGAUGCAUAGUAUUUACAAA | 0.000472 ± 0.0083 | 0.000593 ± 0.009 | 0.0029 ± 0.0042 |  |  | 
14 | UCCUCCUACAGCUACCAUAGUAUUUACAAA | 0.000819 ± 0.0063 | 0.000853 ± 0.0086 | 0.00225 ± 0.0038 |  |  | 
15 | UCCUGCUACAGCUUGCAUAGAUUUUUCAAA | 0.00092 ± 0.007 | 0.000224 ± 0.016 | 0.000801 ± 0.003 |  |  | 
16 | UCCUGGAUGUCGAAGCUAGUAUUUAGUUA | 0.00046 ± 0.01 | 0.000772 ± 0.0065 | 0.000702 ± 0.0082 |  |  | 
17 | UCCUCCUACAGCAUGCAUAGUAUUUACAAA | 0.00134 ± 0.0037 | 0.00139 ± 0.003 | 0.00397 ± 0.0026 |  |  | 
18 | UCCUGGAUCAGCUUGCAUAGUAAAAAGUUA | 0.00178 ± 0.005 | 0.00109 ± 0.0033 | 0.000825 ± 0.0045 |  |  | 
19 | UCCUGCUACAGCUUGCAUACAUUUUAGAAA | 0.000159 ± 0.017 | 0.000186 ± 0.014 | 0.0012 ± 0.0057 |  |  | 
20 | UCCUGGUACAGCUUGCAUAGUAAUUACAAA | 0.00124 ± 0.0053 | 0.00161 ± 0.0046 |  |  | 0.00018 ± 0.051 | 
21 | UCCUGGAUCACCUUGCAUAGUAUUUUCAAA | 0.00121 ± 0.0056 | 0.00142 ± 0.003 | 0.000209 ± 0.034 |  |  | 
22 | UCCUCCUACAGCUUGCAUAGAUAUUUCAAA | 0.000745 ± 0.0055 | 0.000566 ± 0.0083 | 0.00158 ± 0.0036 |  |  | 
23 | UCCUGGAUGUCGAUUCAUAGUAUUUAGUUA | 0.00118 ± 0.0058 | 0.000471 ± 0.017 | 0.000464 ± 0.0065 |  |  | 
24 | UCCUGGAUGUCGAAGCAUAGUAUUUUGUAA | 0.000682 ± 0.0059 | 0.00025 ± 0.018 | 0.000341 ± 0.0098 |  |  | 
25 | UCCUGGAAGAGCUUGCAUAGUAUUUACAAA | 0.00136 ± 0.0052 | 0.00255 ± 0.0041 | 0.00396 ± 0.0018 |  |  | 

Records 11 through 14, reprinted for reference:
Row | Sequence | pre-steady-state target cleavage rate [1, 4] | pre-steady-state target cleavage rate [2, 4] | pre-steady-state target cleavage rate [3, 5] | pre-steady-state target cleavage rate [1, 6] | pre-steady-state target cleavage rate [3, 7] | pre-steady-state target cleavage rate [2, 6]
11 | UCCUGGAUCAGCUACGAUAGUAUUUAGAAA | 0.000356 ± 0.015 | 0.000421 ± 0.0064 | 0.000219 ± 0.016 |  |  | 
12 | UCCUGGAACAGCUUGGUAAGUAUUUAGAAA | 0.000792 ± 0.0071 | 0.000808 ± 0.0082 | 0.00029 ± 0.011 |  |  | 
13 | UCCUGGAUCAGGAUGCAUAGUAUUUACAAA | 0.000472 ± 0.0083 | 0.000593 ± 0.009 | 0.0029 ± 0.0042 |  |  | 
14 | UCCUCCUACAGCUACCAUAGUAUUUACAAA | 0.000819 ± 0.0063 | 0.000853 ± 0.0086 | 0.00225 ± 0.0038 |  |  | 

(next part)

Row | Sequence | pre-steady-state target cleavage rate [1, 4] | pre-steady-state target cleavage rate [2, 4] | pre-steady-state target cleavage rate [3, 5] | pre-steady-state target cleavage rate [1, 6] | pre-steady-state target cleavage rate [3, 7] | pre-steady-state target cleavage rate [2, 6]
26 | UCCUGGAUGUGCUUGCAUAGUAUAAUGUAA | 0.000877 ± 0.0084 | 0.00227 ± 0.0038 | 0.000999 ± 0.0045 |  |  | 
27 | UCCUGGAUGUCGAACCAUAGUCUUUAGUUA |  |  | < 0.0001 | 0.000427 ± 0.0095 |  | 0.000398 ± 0.01
28 | UCCUGGAUGUCCUUGCAUAGAAUUAAGUUA | 0.00142 ± 0.0057 | 0.00101 ± 0.0093 | 0.0014 ± 0.005 |  |  | 
29 | UCCUGGAUCAGCUUGCUAUCAUAAAUCAAA [g15:g22:cont:t1A] | 0.000431 ± 0.013 | 0.000334 ± 0.011 | 0.000154 ± 0.025 |  |  | 
30 | UCCUGGAACAGCUUGCAUAGUAUUAUGUAA | 0.000566 ± 0.0076 | 0.00122 ± 0.0047 | 0.00172 ± 0.0024 |  |  | 
31 | UCCUCCUACAGCUUCCAUAGUAUUUAGUAA | 0.000874 ± 0.0058 | 0.00145 ± 0.0034 | 0.0037 ± 0.0018 |  |  | 
32 | UCCUGGAUGUCGUUGCAUACUAUUUAGUAA | 0.000832 ± 0.007 | 0.000583 ± 0.011 | 0.000421 ± 0.0061 |  |  | 
33 | UCCUGGAACAGCAACCAUAGUAUUUACAAA |  | 0.000852 ± 0.0077 | 0.000208 ± 0.022 | 0.00254 ± 0.0048 |  | 
34 | UCCUGGAUGUGCUUGCAUAGUAAAAUCAAA [g9:g20:cont:t1A] | 0.000925 ± 0.0061 | 0.000457 ± 0.014 | 0.000303 ± 0.011 |  |  | 
35 | UCCUGGUACAGCUUGCAUACUAUUUAGAAA | 0.00137 ± 0.0064 | 0.0029 ± 0.0031 | 0.00236 ± 0.0018 |  |  | 
36 | UCCUGGAUGUCGAACGUUAGUCAUUUAGUUA | 0.000204 ± 0.021 | 0.000419 ± 0.014 | 0.000243 ± 0.021 |  |  | 
37 | UCCUGGAUGUCCUUGCAUAGUAUUUAGAAA | 0.00108 ± 0.0058 | 0.00145 ± 0.0061 | 0.00278 ± 0.0022 |  |  | 
38 | UCCUGGUACAGCUUCCAUAGAAUUUAGUUA | 0.00124 ± 0.0068 | 0.00167 ± 0.0037 | 0.00206 ± 0.0024 |  |  | 
39 | UCCUGGAUGUGCUUGCAUUGAAUUUAGUUA | 0.00202 ± 0.0036 | 0.000871 ± 0.0039 | 0.000205 ± 0.025 |  |  | 
40 | UCCUGGAUGUCGAACGUUAGUAUUUAUGUUA | 0.000163 ± 0.032 |  |  |  | < 0.0001 | 0.0002 ± 0.028
41 | UCCUGGAUGUCCUUGCAUAGAAUUUACUUA | 0.001 ± 0.0071 | 0.00123 ± 0.0044 | 0.000791 ± 0.0078 |  |  | 
42 | UCCUGGAUCAGCAACCAUAGUAUUUAGUUA | 0.00181 ± 0.0033 | 0.00128 ± 0.0052 | 0.00251 ± 0.0037 |  |  | 
43 | UCCUGGAUGUCGAUGCAUAGUAUUAGUUA | 0.000494 ± 0.0097 | 0.00168 ± 0.0048 | 0.00119 ± 0.0043 |  |  | 
44 | UCCUCCUACAGCUAGCAUAGUAUUUUCAAA | 0.00131 ± 0.0032 | 0.000385 ± 0.0059 | 0.00276 ± 0.0031 |  |  | 
45 | UCCUGGAUGUCGAACGUAUCUAUUUACAUA |  |  |  | 0.000186 ± 0.019 | < 0.0001 | 0.000138 ± 0.024
46 | UCCUGGUACAGCUUCCAUAGUAUAUAGUUA | 0.000747 ± 0.01 | 0.00101 ± 0.0063 | 0.000996 ± 0.004 |  |  | 
47 | UCCUGGAACAGCUUGCAUACAAUUUAGUAA | 0.000836 ± 0.0074 | 0.00158 ± 0.0039 | 0.00227 ± 0.0032 |  |  | 
48 | UCCUCCUUGUGCUUGCAUAGUAUUUACAAA | 0.000667 ± 0.0072 | 0.0022 ± 0.0022 | 0.00376 ± 0.0032 |  |  | 
49 | UCCUCCUACUCGUUGCAUAGUAUUUAGAAA | 0.00113 ± 0.0049 | 0.00152 ± 0.0035 | 0.004 ± 0.0035 |  |  | 
50 | UCCUGGAUCAGCUUGCAAUGUAUUUUCAAA | 0.000559 ± 0.0075 | 0.000888 ± 0.0062 | 0.000259 ± 0.013 |  |  | 
